Experimental data taken from patent publication US20210393752A1, “PEPTIDES, COMPOSITIONS AND VACCINES FOR TREATMENT OF MICROSATELLITE INSTABLITY HYPERMUTATED TUMORS AND METHODS OF USE THEREOF” (Icahn School of Medicine at Mount Sinai, priority 2018, published 2021).

Tested on: MHC-I complexes of HCT116 cancer cell line
Experiment: MS/MS of peptides eluted from MHC-I complexes, PepQuery peptide spectrum match
Parameters: species or system human
Details: MSI-H colon cancer

Row | Sequence | presentation by MHC-I (epitope eluted and identified)
1 | KQNRPFFLPVY (listed as Homo sapiens) | eluted from MHC-I and identified by MS/MS
2 | SLEPWIPYLH (listed as Homo sapiens) | eluted from MHC-I and identified by MS/MS
3 | WMKSWSLRDP (listed as Homo sapiens) | eluted from MHC-I and identified by MS/MS
4 | YPKPFAGLFP (listed as Homo sapiens) | eluted from MHC-I and identified by MS/MS
